Record: PubChem BioAssay AID1259425 (University of Nebraska Medical Center, 2018)
The deposit covers about 14,000 reagents; below is a part drawn at random. The record does not give: the time to read-out.

Screen: 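Seek colon cancer weak points whose silencing resembles KSR1 loss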 (primary screen)
Cell system: HCT116 human colon cancer cells
Knock-down reagent: siRNA pool against human genes, 50 nM siRNA
Measurement: 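After 50 nM siRNA pool, branched-DNA assay measures six marker transcripts per well, minus blank, normalised to the geometric mean of two housekeeping transcripts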
Scale: BNIP3L mRNA: higher = more BNIP3L transcript after knockdown; NDRG1 mRNA: higher = more NDRG1 transcript after knockdown; BNIP3 mRNA: higher = more BNIP3 transcript after knockdown; ALDOC mRNA: higher = more ALDOC transcript after knockdown; ACSL5 mRNA: higher = more ACSL5 transcript after knockdown

The first 5 entries as a preview:
target	BNIP3L mRNA, set 1	NDRG1 mRNA, set 1	BNIP3 mRNA, set 1	ALDOC mRNA, set 1	ACSL5 mRNA, set 1
CDKL2 (GeneID 8999)	0.073	0.113	0.308	0.0071	0.641
NR2F6 (GeneID 2063)	0.23	0.606	0.441	0.187	0.114
LONP2 (GeneID 83752)	0.0626	0.146	0.319	0.0605	0.213
DLST (GeneID 1743)	0.12	0.184	0.595	0.0356	0.298
EHF (GeneID 26298)	0.1	0.539	0.369	0.00397	0.345

The list itself, repeating the preview:
target	BNIP3L mRNA, set 1	NDRG1 mRNA, set 1	BNIP3 mRNA, set 1	ALDOC mRNA, set 1	ACSL5 mRNA, set 1
CDKL2 (GeneID 8999)	0.073	0.113	0.308	0.0071	0.641
NR2F6 (GeneID 2063)	0.23	0.606	0.441	0.187	0.114
LONP2 (GeneID 83752)	0.0626	0.146	0.319	0.0605	0.213
DLST (GeneID 1743)	0.12	0.184	0.595	0.0356	0.298
EHF (GeneID 26298)	0.1	0.539	0.369	0.00397	0.345
RNF139 (GeneID 11236)	0.0682	0.13	0.297	0.0306	0.0798
ARMH3 (GeneID 79591)	0.199	0.25	0.426	0.0412	0.198
PALB2 (GeneID 79728)	0.195	0.388	0.391	0.0806	0.227
LARS1 (GeneID 51520)	0.246	0.558	0.321	0.0157	0.604
RLBP1 (GeneID 6017)	0.0663	0.109	0.227	0.00777	0.0598
IPMK (GeneID 253430)	0.154	0.273	0.383	0.0234	0.356
SERHL2 (GeneID 253190)	0.0607	0.135	0.317	0.0458	0.133
SNAPC1 (GeneID 6617)	0.0977	0.0925	0.247	0.0422	0.0873
AUH (GeneID 549)	0.0604	0.147	0.282	0.021	0.177
ACD (GeneID 65057)	0.134	0.137	0.32	0.0348	0.367
BDKRB1 (GeneID 623)	0.235	0.318	0.496	0.0532	0.272
PSMD13 (GeneID 5719)	0.09	0.808	0.462	0.0598	0.153
ACSS2 (GeneID 55902)	0.0782	0.121	0.338	0.02	0.204
SGCD (GeneID 6444)	0.149	0.224	0.377	0.0331	0.246
CHRNA3 (GeneID 1136)	0.0428	0.076	0.226	0.0217	0.156
TP53I3 (GeneID 9540)	0.224	0.268	0.893	0.0728	0.351
LRRC1 (GeneID 55227)	0.0734	0.117	0.382	0.0267	0.133
BECN1 (GeneID 8678)	0.0982	0.156	0.327	0.0456	0.121
KIF26B (GeneID 55083)	0.691	2.39	0.765	0.0115	0.196
PLCD1 (GeneID 5333)	0.106	0.188	0.227	0.0154	0.112
IFT54 (GeneID 26146)	0.0921	0.136	0.467	0.0207	0.143
HSD17B3 (GeneID 3293)	0.0707	0.165	0.254	0.0317	0.15
UBL4A (GeneID 8266)	0.0707	0.0693	0.14	0.0266	0.107
PIEZO1 (GeneID 9780)	0.0128	0.158	0.159	0.01	0.1
YIPF2 (GeneID 78992)	0.213	0.31	0.344	0.0634	0.23
UBA6 (GeneID 55236)	0.0986	0.175	0.281	0.0183	0.126
NISCH (GeneID 11188)	0.116	0.332	0.299	0.0385	0.254
STYX (GeneID 6815)	0.0772	0.0946	0.248	0.0195	0.231
ITGA10 (GeneID 8515)	0.0736	0.0976	0.252	0.0165	0.186
PAK2 (GeneID 5062)	0.0859	0.0456	0.208	0.00186	0.0323
CSTF1 (GeneID 1477)	0.1	0.124	0.358	0.0223	0.183
ZC3H12A (GeneID 80149)	0.18	0.422	0.339	0.0255	0.338
THOC1 (GeneID 9984)	0.0633	0.429	0.27	0.00865	0.0918
MCTP1 (GeneID 79772)	0.0787	0.26	0.25	0.0227	0.153
NKX2-8 (GeneID 26257)	0.049	0.186	0.246	0.00917	0.164
STRA6 (GeneID 64220)	0.09	0.0572	0.267	0.0175	0.0998
RPS14 (GeneID 6208)	0.0464	0.208	0.53	0.039	0.0659
MTRF1L (GeneID 54516)	0.0934	0.169	0.235	0.0228	0.181
MRPS27 (GeneID 23107)	0.094	0.458	0.283	0.0197	0.338
NCAPH2 (GeneID 29781)	0.112	0.356	0.314	0.0429	0.107
KLHDC8A (GeneID 55220)	0.112	0.266	0.597	0.0488	0.254
CDC14A (GeneID 8556)	0.0863	0.176	0.306	0.0155	0.267
HSPBAP1 (GeneID 79663)	0.13	0.291	0.274	0.0383	0.206
CLTC (GeneID 1213)	0.373	0.462	0.458	0.0352	0.0816
SPATA6L (GeneID 55064)	0.233	0.466	0.269	0.0397	0.141
